The record followed here is publication PMC9429925.

Results are given in words; binding and its absence hold for the method and conditions named. Some binding calls cover weakened binding; strength is not graded here. For some of these results: Where a sequence is shown, tags or fusion partners need not be part of it.

One assay addresses T1, T25-DcuR (E. coli) (UniProt P0AD01).
T1 sequence: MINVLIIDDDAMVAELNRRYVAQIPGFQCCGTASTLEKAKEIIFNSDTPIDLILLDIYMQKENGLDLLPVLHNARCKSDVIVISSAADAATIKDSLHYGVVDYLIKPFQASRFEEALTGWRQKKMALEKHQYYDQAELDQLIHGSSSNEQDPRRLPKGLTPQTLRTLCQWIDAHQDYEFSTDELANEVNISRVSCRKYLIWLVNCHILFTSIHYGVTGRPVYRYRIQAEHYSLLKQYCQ
In words: two-hybrid; bacterial two-hybrid BACTH in E. coli BTH101 (ΔcyaA); T25 N-terminally on DcuR, T18 C-terminally on DcuS or PASC-Kin; β-galactosidase activity in Miller units; wild-type pair also with fumarate.

In a further assay the target is His6-DcuR (E. coli) (UniProt P0AD01). Put plainly: SEC; each protein alone on HiLoad 16/600 Sephadex 200; His6-PASc-Kinase 45 μM, DcuR 55 μM; 50 mM Tris-HCl, 1 mM DTT, 50 mM KCl, 5 mM MgCl2, pH 7.7, 25°C; Mr by calibration with protein standards; both purified. A general note: In gel filtration, larger molecules generally elute earlier.
Assay [1] has as its target phosphorylated DcuR (DcuR-P) (E. coli) (UniProt P0AD01). The assay is described as above.

B1: PASc-Kin-T18 [DcuS(211-539)] (domain or fragment, UniProt P0AEC8 211-539)
chain: GLEPYEISTLFEQRQAMLQSIKEGVVAVDDRGEVTLINDAAQELLNYRKSQDDEKLSTLSHSWSQVVDVSEVLRDGTPRRDEEITIKDRLLLINTVPVRSNGVIIGAISTFRDKTEVRKLMQRLDGLVNYADALRERSHEFMNKLHVILGLLHLKSYKQLEDYILKTANNYQEEIGSLLGKIKSPVIAGFLISKINRATDLGHTLILNSESQLPDSGSEDQVATLITTLGNLIENALEALGPEPGGEISVTLHYRHGWLHCEVNDDGPGIAPDKIDHIFDKGVSTKGSERGVGLALVKQQVENLGGSIAVESEPGIFTQFFVQIPWDGE
For the molecule B1, in the assay with T25-DcuR (E. coli), the binding entry was “binds”.

B2: His6-DcuR (protein, UniProt P0AD01 1-239)
chain: T1 sequence
B2: the binding result with His6-DcuR (E. coli) is recorded as “no binding (tested: 55 μM)”.

B3: phosphorylated DcuR (DcuR-P) (protein, UniProt P0AD01 1-239)
chain: T1 sequence
modifications: phosphorylated with carbamoyl phosphate; phosphorylation site Asp56
With B3, the binding entry in assay [1] is “no binding (tested: 55 μM)”.

B4: DcuS-T18 (protein, UniProt P0AEC8 1-543)
chain: MRHSLPYRMLRKRPMKLSTTVILMVSAVLFSVLLVVHLIYFSQISDMTRDGLANKALAVARTLADSPEIRQGLQKKPQESGIQAIAEAVRKRNDLLFIVVTDMQSLRYSHPEAQRIGQPFKGDDILKALNGEENVAINRGFLAQALRVFTPIYDENHKQIGVVAIGLELSRVTQQINDSRWSIIWSVLFGMLVGLIGTCILVKVLKKILFGLEPYEISTLFEQRQAMLQSIKEGVVAVDDRGEVTLINDAAQELLNYRKSQDDEKLSTLSHSWSQVVDVSEVLRDGTPRRDEEITIKDRLLLINTVPVRSNGVIIGAISTFRDKTEVRKLMQRLDGLVNYADALRERSHEFMNKLHVILGLLHLKSYKQLEDYILKTANNYQEEIGSLLGKIKSPVIAGFLISKINRATDLGHTLILNSESQLPDSGSEDQVATLITTLGNLIENALEALGPEPGGEISVTLHYRHGWLHCEVNDDGPGIAPDKIDHIFDKGVSTKGSERGVGLALVKQQVENLGGSIAVESEPGIFTQFFVQIPWDGERSNR
Regarding B4, in the assay with T25-DcuR (E. coli), the binding result is reported as “binds”.
